Reference: PMC2905333

Protein sequences, listed by entry. Tags and fused reporters are not part of them. Lines headed by an entry give the natural chain unless they say otherwise; changes in a name come on top.
UniProt Q9H9V4: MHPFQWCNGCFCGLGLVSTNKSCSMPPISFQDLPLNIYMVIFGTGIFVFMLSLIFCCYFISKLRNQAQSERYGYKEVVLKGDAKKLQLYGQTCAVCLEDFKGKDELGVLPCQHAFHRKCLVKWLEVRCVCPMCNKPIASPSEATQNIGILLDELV
UniProt P49069: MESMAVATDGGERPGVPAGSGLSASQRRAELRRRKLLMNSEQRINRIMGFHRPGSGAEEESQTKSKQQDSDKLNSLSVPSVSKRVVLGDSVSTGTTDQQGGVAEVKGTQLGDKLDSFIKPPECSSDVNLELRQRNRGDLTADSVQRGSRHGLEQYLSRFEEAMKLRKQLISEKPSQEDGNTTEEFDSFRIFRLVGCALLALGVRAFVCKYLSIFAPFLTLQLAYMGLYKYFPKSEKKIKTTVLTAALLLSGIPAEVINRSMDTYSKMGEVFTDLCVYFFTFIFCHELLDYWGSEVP

Molecular target: mut-RNF122-myc (human) (UniProt Q9H9V4)
Assay: co-IP; HEK293T cotransfected with RNF122-myc or mut-RNF122-myc and CAML-FLAG; 2.5 μg/mL MG132 for 6 h; lysed in PBS with 1% Triton X-100; immunoprecipitated with anti-myc antibody agarose beads, blot with anti-FLAG

## FLAG-tagged CAML (CAML-FLAG) (from UniProt P49069 1-296)
  binding: no binding

These are yes or no findings as the source states them, for the method shown. Binding seen in cells or lysates may run through a third protein.
